Experimental data: PubChem BioAssay AID1159578 (Peter MacCallum Cancer Centre, 2015)

Purpose: 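siRNA pools altering how lymphatic endothelial cells close a scratch wound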 (primary screen)
System: human lymphatic endothelial cells
Knock-down reagent: siRNA pool against human genes, 40 nM
Duration: 48 h after transfection
Measurement: 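High-content imaging of dye-stained cells in a scratch assay measures filled wound area and nuclei per well; duplicate means given as ratio to mock and robust z-score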
Reading the numbers: migration robust z-score: higher = faster migration into the scratch; migration relative to mock: higher = more scratch area covered than mock; nuclei per well: higher = more cells in the well
Call rule: 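Pools averaging fewer than 3300 nuclei are never called; remaining pools count as changed when migration robust z lies outside -2 to 2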
Calls: active = migration changed; inactive = no migration change, or too few cells
The whole screen tested about 18,000 reagents; shown is a random part of them. Over the whole deposit, about 1,030 (5.7%) were called active. 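Inactive calls also include pools with fewer than 3300 nuclei, whose migration was not assessed.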 Raw values are not corrected between plates.

| migration robust z-score | migration class with cell-count check | migration relative to mock | nuclei per well, duplicate mean | activity call | target gene |
| --- | --- | --- | --- | --- | --- |
| -0.58 | migration z between -2 and 2; enough cells | 0.73 | 7528 | inactive | CLDN19 |
| -1.5 | migration z between -2 and 2; enough cells | 0.52 | 5752 | inactive | KLF6 |
| 0.06 | migration z between -2 and 2; enough cells | 0.9 | 7172 | inactive | EFL1 |
| 0.18 | migration z between -2 and 2; enough cells | 0.93 | 7148 | inactive | KLF5 |
| 0.24 | migration z between -2 and 2; enough cells | 0.85 | 4720 | inactive | UGT2B28 |
| 2.92 | migration z above 2; enough cells | 1.64 | 5675 | active | CHCT1 |
| 1.61 | migration z between -2 and 2; enough cells | 1.3 | 4738 | inactive | DYNC2LI1 |
| -3.04 | under 3300 nuclei; migration not judged | 0.22 | 3250 | inactive | PRAG1 |
| 0.5 | migration z between -2 and 2; enough cells | 0.9 | 5441 | inactive | MORF4 |
| -0.52 | migration z between -2 and 2; enough cells | 0.7 | 4793 | inactive | UBE2QL1 |
| -1.07 | migration z between -2 and 2; enough cells | 0.61 | 3785 | inactive | PAGE4 |
| -1.77 | migration z between -2 and 2; enough cells | 0.42 | 6610 | inactive | FCRL4 |
| 0.39 | migration z between -2 and 2; enough cells | 0.98 | 6640 | inactive | COG7 |
| -0.11 | migration z between -2 and 2; enough cells | 0.86 | 6047 | inactive | GNLY |
| -1.06 | migration z between -2 and 2; enough cells | 0.6 | 5566 | inactive | PFKM |
| -1.27 | migration z between -2 and 2; enough cells | 0.56 | 5555 | inactive | NAA25 |
| -0.21 | migration z between -2 and 2; enough cells | 0.83 | 6461 | inactive | BRAT1 |
| -0.42 | migration z between -2 and 2; enough cells | 0.77 | 5142 | inactive | DOCK4 |
| -0.86 | migration z between -2 and 2; enough cells | 0.64 | 5264 | inactive | ESM1 |
| 1.4 | migration z between -2 and 2; enough cells | 1.08 | 4510 | inactive | PPM1D |
| -0.8 | migration z between -2 and 2; enough cells | 0.65 | 4456 | inactive | CDC25B |
| 0.88 | migration z between -2 and 2; enough cells | 1.12 | 6932 | inactive | FAM86C1P |
| -0.29 | migration z between -2 and 2; enough cells | 0.75 | 5664 | inactive | TTF1 |
| -2.57 | under 3300 nuclei; migration not judged | 0.22 | 1974 | inactive | AVP |
| 0.48 | migration z between -2 and 2; enough cells | 1.01 | 5999 | inactive | SYT7 |
| -1.09 | migration z between -2 and 2; enough cells | 0.6 | 4605 | inactive | AMY1A |
| 0.62 | migration z between -2 and 2; enough cells | 0.92 | 4906 | inactive | TRIM46 |
| 1.4 | migration z between -2 and 2; enough cells | 1.25 | 6192 | inactive | NBPF11 |
| -1.36 | migration z between -2 and 2; enough cells | 0.54 | 4730 | inactive | VWCE |
| 0.42 | migration z between -2 and 2; enough cells | 1 | 6026 | inactive | GTPBP4 |
| -1.52 | migration z between -2 and 2; enough cells | 0.49 | 5416 | inactive | ECPAS |
| -1.68 | migration z between -2 and 2; enough cells | 0.44 | 6434 | inactive | EIF3A |

Continued (8 carried over from the part before).
| migration robust z-score | migration class with cell-count check | migration relative to mock | nuclei per well, duplicate mean | activity call | target gene |
| --- | --- | --- | --- | --- | --- |
| 0.48 | migration z between -2 and 2; enough cells | 1.01 | 5999 | inactive | SYT7 |
| -1.09 | migration z between -2 and 2; enough cells | 0.6 | 4605 | inactive | AMY1A |
| 0.62 | migration z between -2 and 2; enough cells | 0.92 | 4906 | inactive | TRIM46 |
| 1.4 | migration z between -2 and 2; enough cells | 1.25 | 6192 | inactive | NBPF11 |
| -1.36 | migration z between -2 and 2; enough cells | 0.54 | 4730 | inactive | VWCE |
| 0.42 | migration z between -2 and 2; enough cells | 1 | 6026 | inactive | GTPBP4 |
| -1.52 | migration z between -2 and 2; enough cells | 0.49 | 5416 | inactive | ECPAS |
| -1.68 | migration z between -2 and 2; enough cells | 0.44 | 6434 | inactive | EIF3A |
| -0.24 | migration z between -2 and 2; enough cells | 0.76 | 5804 | inactive | HSPA8 |
| -0.38 | migration z between -2 and 2; enough cells | 0.79 | 5093 | inactive | ZSCAN20 |
| 0.3 | migration z between -2 and 2; enough cells | 0.97 | 6362 | inactive | EML2 |
| -0.82 | migration z between -2 and 2; enough cells | 0.68 | 5066 | inactive | ZSWIM3 |
| 0.7 | migration z between -2 and 2; enough cells | 0.94 | 6578 | inactive | LIPF |
| 0.08 | migration z between -2 and 2; enough cells | 0.9 | 5004 | inactive | OR51A4 |
| -0.25 | migration z between -2 and 2; enough cells | 0.82 | 4966 | inactive | TMEM8B |
| -0.02 | migration z between -2 and 2; enough cells | 0.88 | 5820 | inactive | CSRNP2 |
| -1.22 | migration z between -2 and 2; enough cells | 0.57 | 4852 | inactive | ABCC6 |
| -2.02 | migration z below -2; enough cells | 0.36 | 4882 | active | ALCAM |
| -0.57 | migration z between -2 and 2; enough cells | 0.74 | 5972 | inactive | TPRG1 |
| 0.6 | migration z between -2 and 2; enough cells | 1.04 | 5086 | inactive | ZNF250 |
| 0.65 | migration z between -2 and 2; enough cells | 0.93 | 5484 | inactive | MMP17 |
| 0.9 | migration z between -2 and 2; enough cells | 1.12 | 6004 | inactive | BCL7C |
| -0.53 | migration z between -2 and 2; enough cells | 0.75 | 5076 | inactive | SHC2 |
| -0.46 | migration z between -2 and 2; enough cells | 0.72 | 5434 | inactive | FBXO46 |
| 0.36 | migration z between -2 and 2; enough cells | 0.88 | 6621 | inactive | QTRT1 |
| 0.26 | migration z between -2 and 2; enough cells | 0.95 | 6065 | inactive | PEG3 |
| 0.31 | migration z between -2 and 2; enough cells | 0.96 | 5866 | inactive | SUDS3 |
| -0.02 | migration z between -2 and 2; enough cells | 0.88 | 5718 | inactive | CAPZA3 |
| -1.42 | migration z between -2 and 2; enough cells | 0.52 | 5202 | inactive | LPCAT2 |
| -0.34 | migration z between -2 and 2; enough cells | 0.74 | 5828 | inactive | ALOX15 |
| 0.57 | migration z between -2 and 2; enough cells | 1.03 | 6957 | inactive | IRGC |
| 1.7 | migration z between -2 and 2; enough cells | 1.33 | 5568 | inactive | FUZ |
| -0.34 | migration z between -2 and 2; enough cells | 0.8 | 6118 | inactive | MAGEC2 |
